Some of the results follow.
Columns and labels:
Assay in all cases: glycan array binding signal (z-score within array); higher = stronger binding
Conditions in all cases: glycan notation: IUPAC condensed, linker removed
[1] = biological target: Gal(b1-4)GlcNAc(b1-3)Gal(b1-4)GlcNAc(b1-6)[Gal(b1-3)]GalNAc
Method in brief: (§1)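 Glycan array data were curated from 3228 arrays in the Consortium for Functional Glycomics database and kept only where the protein sequence was available. Glycan names were converted to IUPAC-condensed notation, and columns mapping to the same glycan were averaged. The binding signal is a within-array Z-score, averaged across arrays of the same protein sequence at different concentrations or buffers and across linkers. Negative Z-scores can be read as non-binding.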

[2] = biological target: Gal(b1-4)GlcNAc(b1-3)Gal(b1-4)[Fuc(a1-3)]GlcNAc(b1-3)Gal(b1-4)[Fuc(a1-3)]GlcNAc
Method in brief: as §1

[3] = biological target: Gal(b1-4)GlcNAc(b1-3)GalNAc
Method in brief: as §1

[4] = biological target: Gal(b1-4)GlcNAc(b1-3)[Fuc(a1-3)GlcNAc(b1-6)]Gal(b1-4)Glc
Method in brief: as §1

[5] = biological target: Gal(b1-4)GlcNAc(b1-3)[Gal(b1-4)GlcNAc(b1-6)]Gal(b1-4)GlcNAc
Method in brief: as §1

[6] = biological target: Gal(b1-4)GlcNAc(b1-3)[GlcNAc(b1-6)]Gal(b1-4)GlcNAc
Method in brief: as §1

[7] = biological target: Gal(b1-4)GlcNAc(b1-6)Gal(b1-4)GlcNAc
Method in brief: as §1

[8] = biological target: Gal(b1-4)GlcNAc(b1-6)GalNAc
Method in brief: as §1

[9] = biological target: Gal(b1-4)GlcNAc(b1-6)[Gal(b1-3)]GalNAc
Method in brief: as §1

[10] = biological target: Gal(b1-4)GlcNAc(b1-6)[Gal(b1-4)GlcNAc(b1-3)]GalNAc
Method in brief: as §1

Gal(b1-4)GlcNAc6P = biological target: Gal(b1-4)GlcNAc6P
Method in brief: as §1

Gal(b1-6)Gal = biological target: Gal(b1-6)Gal
Method in brief: as §1

Gal3S(b1-3)GalNAc = biological target: Gal3S(b1-3)GalNAc
Method in brief: as §1

Gal3S(b1-3)GlcNAc = biological target: Gal3S(b1-3)GlcNAc
Method in brief: as §1

[11] = biological target: Gal3S(b1-3)[Fuc(a1-4)]GlcNAc
Method in brief: as §1

Gal3S(b1-4)Glc = biological target: Gal3S(b1-4)Glc
Method in brief: as §1

Gal3S(b1-4)Glc6S = biological target: Gal3S(b1-4)Glc6S
Method in brief: as §1

Gal3S(b1-4)GlcNAc = biological target: Gal3S(b1-4)GlcNAc
Method in brief: as §1

[12] = biological target: Gal3S(b1-4)[Fuc(a1-3)]Glc6S
Method in brief: as §1

[13] = biological target: Gal3S(b1-4)[Fuc(a1-3)]GlcNAc
Method in brief: as §1

[14] = biological target: Gal3S(b1-4)[Fuc(a1-3)]GlcNAc6S
Method in brief: as §1

Gal3S4S(b1-4)GlcNAc = biological target: Gal3S4S(b1-4)GlcNAc
Method in brief: as §1

Gal3S6S(b1-4)GlcNAc = biological target: Gal3S6S(b1-4)GlcNAc
Method in brief: as §1

Gal3S6S(b1-4)GlcNAc6S = biological target: Gal3S6S(b1-4)GlcNAc6S
Method in brief: as §1

Gal4S(b1-4)GlcNAc = biological target: Gal4S(b1-4)GlcNAc
Method in brief: as §1

Gal4S6S(b1-4)GlcNAc = biological target: Gal4S6S(b1-4)GlcNAc
Method in brief: as §1

Gal6P(b1-4)GlcNAc = biological target: Gal6P(b1-4)GlcNAc
Method in brief: as §1

Gal6S(b1-3)GlcNAc = biological target: Gal6S(b1-3)GlcNAc
Method in brief: as §1

Gal6S(b1-3)GlcNAc6S = biological target: Gal6S(b1-3)GlcNAc6S
Method in brief: as §1

Gal6S(b1-4)Glc = biological target: Gal6S(b1-4)Glc
Method in brief: as §1

Gal6S(b1-4)Glc6S = biological target: Gal6S(b1-4)Glc6S
Method in brief: as §1

Gal6S(b1-4)GlcNAc = biological target: Gal6S(b1-4)GlcNAc
Method in brief: as §1

Gal6S(b1-4)GlcNAc6S = biological target: Gal6S(b1-4)GlcNAc6S
Method in brief: as §1

GalNAc(a1-3)Gal = biological target: GalNAc(a1-3)Gal
Method in brief: as §1

GalNAc(a1-3)GalNAc = biological target: GalNAc(a1-3)GalNAc
Method in brief: as §1

[15] = biological target: GalNAc(a1-3)GalNAc(b1-3)Gal(a1-4)Gal(b1-4)Glc
Method in brief: as §1

[16] = biological target: GalNAc(a1-3)GalNAc(b1-3)Gal(a1-4)Gal(b1-4)GlcNAc
Method in brief: as §1

GalNAc(b1-3)Gal = biological target: GalNAc(b1-3)Gal
Method in brief: as §1

[17] = biological target: GalNAc(b1-3)Gal(a1-4)Gal(b1-4)GlcNAc
Method in brief: as §1

[18] = biological target: GalNAc(b1-3)Gal(a1-4)Gal(b1-4)GlcNAc(b1-3)Gal(b1-4)Glc
Method in brief: as §1

[19] = biological target: GalNAc(b1-3)Gal(a1-6)Gal(b1-4)Glc
Method in brief: as §1

GalNAc(b1-3)GalNAc = biological target: GalNAc(b1-3)GalNAc
Method in brief: as §1

GalNAc(b1-3)GlcNAc = biological target: GalNAc(b1-3)GlcNAc
Method in brief: as §1

GalNAc(b1-4)Gal(b1-4)Glc = biological target: GalNAc(b1-4)Gal(b1-4)Glc
Method in brief: as §1

GalNAc(b1-4)GlcNAc = biological target: GalNAc(b1-4)GlcNAc
Method in brief: as §1

B1: MXA PilAct-eGFP (Myxococcus xanthus), Q59589 (protein)
chain: MRVSRFNPRNRGFTLIELMIVVAIIGILAAIAIPNFIKFQARSKQSEAKTNLKALYTAQKSFFSEKDRYSDFANEIGFAPERGNRYGYRVSAAAGDCEVRNAADLPVPAAGVPCISNDSFRFGANSAIDDPTPVVARFVPQGAAGWNTTLGVQPTIADCPNCNFFAGARGNADNEATFDDWVIAGFEGSGQVGPCSEAGNVASGTPYNTRNDVACDGAAQ
**Q.** With B1 as the binder, how does the “glycan array binding signal (z-score)” value [1] read?
**A.** 0.001

**Q.** What about the “glycan array binding signal (z-score)” value [2] of the same binder?
**A.** 0.697

**Q.** What about the “glycan array binding signal (z-score)” value [3] of the same binder?
**A.** -0.587

**Q.** What about the “glycan array binding signal (z-score)” value [4] of the same binder?
**A.** 0.181

**Q.** And the “glycan array binding signal (z-score)” value [5]?
**A.** -0.851

**Q.** What about the “glycan array binding signal (z-score)” value [6] of the same binder?
**A.** -1.23

**Q.** What about the “glycan array binding signal (z-score)” value [7] of the same binder?
**A.** 0.221

**Q.** What about the “glycan array binding signal (z-score)” value [8] of the same binder?
**A.** -0.215

**Q.** What about the “glycan array binding signal (z-score)” value [9] of the same binder?
**A.** -0.545

**Q.** What about the “glycan array binding signal (z-score)” value [10] of the same binder?
**A.** -0.011

**Q.** And the “glycan array binding signal (z-score)” value (Gal(b1-4)GlcNAc6P)?
**A.** 0.348

**Q.** What about the “glycan array binding signal (z-score)” value (Gal(b1-6)Gal) of the same binder?
**A.** -0.751

**Q.** And the “glycan array binding signal (z-score)” value (Gal3S(b1-3)GalNAc)?
**A.** -1.55

**Q.** And the “glycan array binding signal (z-score)” value (Gal3S(b1-3)GlcNAc)?
**A.** 0.122

**Q.** And the “glycan array binding signal (z-score)” value [11]?
**A.** -0.932

**Q.** And the “glycan array binding signal (z-score)” value (Gal3S(b1-4)Glc)?
**A.** -0.945

**Q.** What about the “glycan array binding signal (z-score)” value (Gal3S(b1-4)Glc6S) of the same binder?
**A.** -1.12

**Q.** What about the “glycan array binding signal (z-score)” value (Gal3S(b1-4)GlcNAc) of the same binder?
**A.** -0.174

**Q.** What about the “glycan array binding signal (z-score)” value [12] of the same binder?
**A.** 0.594

**Q.** What about the “glycan array binding signal (z-score)” value [13] of the same binder?
**A.** -0.03

**Q.** And the “glycan array binding signal (z-score)” value [14]?
**A.** -0.382

**Q.** What about the “glycan array binding signal (z-score)” value (Gal3S4S(b1-4)GlcNAc) of the same binder?
**A.** -0.123

**Q.** What about the “glycan array binding signal (z-score)” value (Gal3S6S(b1-4)GlcNAc) of the same binder?
**A.** -0.332

**Q.** And the “glycan array binding signal (z-score)” value (Gal3S6S(b1-4)GlcNAc6S)?
**A.** 0.757

**Q.** What about the “glycan array binding signal (z-score)” value (Gal4S(b1-4)GlcNAc) of the same binder?
**A.** -0.022

**Q.** What about the “glycan array binding signal (z-score)” value (Gal4S6S(b1-4)GlcNAc) of the same binder?
**A.** -0.445

**Q.** What about the “glycan array binding signal (z-score)” value (Gal6P(b1-4)GlcNAc) of the same binder?
**A.** -0.421

**Q.** And the “glycan array binding signal (z-score)” value (Gal6S(b1-3)GlcNAc)?
**A.** 0.713

**Q.** And the “glycan array binding signal (z-score)” value (Gal6S(b1-3)GlcNAc6S)?
**A.** 0.261

**Q.** What about the “glycan array binding signal (z-score)” value (Gal6S(b1-4)Glc) of the same binder?
**A.** 1.64

**Q.** And the “glycan array binding signal (z-score)” value (Gal6S(b1-4)Glc6S)?
**A.** -0.152

**Q.** What about the “glycan array binding signal (z-score)” value (Gal6S(b1-4)GlcNAc) of the same binder?
**A.** -1.58

**Q.** What about the “glycan array binding signal (z-score)” value (Gal6S(b1-4)GlcNAc6S) of the same binder?
**A.** -0.872

**Q.** What about the “glycan array binding signal (z-score)” value (GalNAc(a1-3)Gal) of the same binder?
**A.** 0.16

**Q.** What about the “glycan array binding signal (z-score)” value (GalNAc(a1-3)GalNAc) of the same binder?
**A.** -1.12

**Q.** And the “glycan array binding signal (z-score)” value [15]?
**A.** -0.178

**Q.** And the “glycan array binding signal (z-score)” value [16]?
**A.** -0.666

**Q.** What about the “glycan array binding signal (z-score)” value (GalNAc(b1-3)Gal) of the same binder?
**A.** -0.364

**Q.** What about the “glycan array binding signal (z-score)” value [17] of the same binder?
**A.** -0.519

**Q.** And the “glycan array binding signal (z-score)” value [18]?
**A.** -0.848

**Q.** What about the “glycan array binding signal (z-score)” value [19] of the same binder?
**A.** -0.469

**Q.** What about the “glycan array binding signal (z-score)” value (GalNAc(b1-3)GalNAc) of the same binder?
**A.** -0.712

**Q.** What about the “glycan array binding signal (z-score)” value (GalNAc(b1-3)GlcNAc) of the same binder?
**A.** -0.256

**Q.** And the “glycan array binding signal (z-score)” value (GalNAc(b1-4)Gal(b1-4)Glc)?
**A.** -1.31

**Q.** And the “glycan array binding signal (z-score)” value (GalNAc(b1-4)GlcNAc)?
**A.** 0.621

— the supplement of paper PMC8728848
